# Laboratory results from the supplement of paper PMC12889115.
# The list shows a part of the results. These are raw signals, not scaled to a control.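 Primary screen: polymyxin B was added at a level permeabilizing Salmonella outer membranes while sparing inner membranes. DMSO wells, both with and without polymyxin B, established maximum growth. Plate-to-plate variation meant each plate was ranked on its own, and the lowest-OD600 compounds were selected as hits.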
# Tested on: Salmonella enterica serovar Typhimurium SL1344
# Assay: bacterial growth OD600 after 18 h with compound and polymyxin B; higher = more bacterial growth (less inhibition)
# Details: 50 µM, Mueller-Hinton broth
Structure (SMILES),bacterial growth OD600 (polymyxin B 0.75 µg/mL),bacterial growth OD600 (polymyxin B 1 µg/mL)
Cc1oc(-c2ccccc2NS(C)(=O)=O)nc1CN(C)Cc1ccc(CN2CCCCC2)s1,0.711,–
Cc1ccoc1C(=O)NC1CC(=O)N(Cc2ccccc2C(F)(F)F)C1 (stereo not given),–,0.976
COc1ccc(CNC(C)c2cnn(-c3ccc(F)cc3F)c2C)cc1 (stereo not given),0.827,–
Cc1ccc2c(c1)CN(Cc1cn(C)nc1C)CC(c1ccsc1)O2 (stereo not given),0.006,–
COc1cc(CN2CCN(Cc3cc(F)ccc3F)CC2CCO)cc(OC)c1 (stereo not given),–,0.826
CC(=O)N1CCCC1C(=O)Nc1ccccc1Oc1cccnc1 (stereo not given),0.837,–
O=C(Cc1ccccc1)Nc1ccnn1C1CCN(C(=O)c2cscn2)CC1,–,0.939
COc1ccc(C(=O)N2CCCC(Nc3ccc(F)cc3)C2)c(OC)c1 (stereo not given),–,0.861
COc1ccc(/C=C/C(=O)N2CCCC(CO)(Cc3ccc(F)cc3F)C2)cc1 (stereo not given),–,0.597
Cc1cnc(C)c(N2CCN(C(=O)CC3(c4cccc(F)c4)CC(=O)N(C4CCCC4)C3=O)CC2)n1 (stereo not given),0.742,–
CCN1CCN(CC2(O)CCCN(CC3CCCCC3)C2=O)CC1 (stereo not given),–,0.905
CCOC(=O)C1(Cc2ccc(F)cc2F)CCCN(C(=O)CC)C1 (stereo not given),–,0.834
O=C(NCCN1Cc2ccccc2OC(c2ccsc2)C1)[C@@H]1C[C@H]1c1ccccc1 (stereo not given in full),0.02,–
O=C(CCOc1ccccc1)Nc1ccnn1C1CCN(Cc2nccs2)CC1,–,0.93
COc1ccc(CNC2CCN(c3ccc(C(=O)N4CCCC(CO)C4)cc3)CC2)cc1OC (stereo not given),0.83,–
C=CCC(=O)N1CCCCC1C(=O)Nc1cccc(-c2nnc(C)s2)c1 (stereo not given),–,0.898
CCOC(=O)C1(Cc2ccccc2C)CCCN(C(=O)Cn2nc(C)cc2C)C1 (stereo not given),–,0.561
CCOc1ccc2nc(CN3CCC(n4nccc4NC(C)=O)CC3)ccc2c1,0.713,–
Cc1nc(CN2CC[C@@H](N3CCN(c4ccccc4F)CC3)[C@H](O)C2)c2ccccn12,–,0.953
CC(=O)c1ccc(OCC(=O)N2CCCC(c3nc(-c4ccncc4)ncc3-c3ccccc3)C2)cc1 (stereo not given),0.796,–
O=C(c1ccc(N2CCC(NCc3cnc4ccccn34)CC2)cc1)N1CCc2ccccc2C1,0.765,–
C=CC[C@@H]1CC=C[C@@H](C)N1C(=O)c1cc(Cn2nc(C)cc2C)[nH]n1,0.765,–
CC(C)CCNc1ccc(C(=O)N2CCC(CN3CCCC3=O)CC2)cn1,0.803,–
COc1ccc(OC)c(CN2CCC(c3nc(-c4ccncc4)ncc3-c3cccc(C)c3)CC2)c1,0.841,–
CCCC1(C2CCN(C(=O)CCc3cccs3)CC2)NC(=O)N(CCc2ccccn2)C1=O (stereo not given),0.83,–
COc1ccc2c(C)nc(N3CCCC(C(=O)N4CCC[C@H]4CO)C3)nc2c1 (stereo not given in full),0.962,–
COc1ccc(C2c3[nH]c4ccccc4c3CCN2Cc2nc(C)c[nH]2)cc1C (stereo not given),0.29,–
CC(C)n1cc(C(=O)NCc2ccccc2)c(=O)c(C(=O)N2CCN(C/C=C/c3ccccc3)CC2)c1,0.763,–
CCCCC1CN(CCNC(=O)C2CC=CCC2)Cc2ccccc2O1 (stereo not given),0.758,–
CC(=O)NCC(=O)N(CC1CCN(Cc2ccccc2C)CC1)CC1CCCO1 (stereo not given),–,1.13

# Among those listed so far, these have sulfur:
Structure (SMILES),bacterial growth OD600 (polymyxin B 0.75 µg/mL),bacterial growth OD600 (polymyxin B 1 µg/mL)
Cc1oc(-c2ccccc2NS(C)(=O)=O)nc1CN(C)Cc1ccc(CN2CCCCC2)s1,0.711,–
Cc1ccc2c(c1)CN(Cc1cn(C)nc1C)CC(c1ccsc1)O2 (stereo not given),0.006,–
O=C(Cc1ccccc1)Nc1ccnn1C1CCN(C(=O)c2cscn2)CC1,–,0.939
O=C(NCCN1Cc2ccccc2OC(c2ccsc2)C1)[C@@H]1C[C@H]1c1ccccc1 (stereo not given in full),0.02,–
O=C(CCOc1ccccc1)Nc1ccnn1C1CCN(Cc2nccs2)CC1,–,0.93
C=CCC(=O)N1CCCCC1C(=O)Nc1cccc(-c2nnc(C)s2)c1 (stereo not given),–,0.898
CCCC1(C2CCN(C(=O)CCc3cccs3)CC2)NC(=O)N(CCc2ccccn2)C1=O (stereo not given),0.83,–
